{"source": "PubChem BioAssay AID504774, Drosophila RNAi Screening Center | 2011", "assay": "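Fly genes whose loss alters survival after alkylation damage to DNA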 (primary screen)", "cells": "Drosophila Kc167 cells", "knock-down reagent": "long dsRNA against Drosophila genes, about 0.25 µg dsRNA per well", "timing": "about 6 days: 3 days knock-down, then 3 days with or without MMS", "challenge": "methyl methanesulphonate 0.004% (w/v) for 3 days after knock-down", "measured": "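Viability in wells given MMS, read as ATP luminescence, normalised by quantiles plate by plate and averaged across replicates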", "direction": "mean viability with MMS: higher = more surviving cells after MMS", "note": "The deposit covers about 23,000 reagents; shown is a random part of those that have a named target and a result. 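Values are quantile-normalised luminescence on an arbitrary scale; higher means more cells surviving MMS.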 Not all columns of the deposit are shown."}
{"predicted target": "FAM21 (GeneID 37331)", "DRSC id": "DRSC06623", "mean viability with MMS": 3.54e6}
{"predicted target": "Serinc (GeneID 39827)", "DRSC id": "DRSC11296", "mean viability with MMS": 3.45e6}
{"predicted target": "CG9394 (GeneID 37399)", "DRSC id": "DRSC04550", "mean viability with MMS": 3.31e6}
{"predicted target": "CG15534 (GeneID 43613)", "DRSC id": "DRSC15070", "mean viability with MMS": 3.50e6}
{"predicted target": "scro (GeneID 3355151)", "DRSC id": "DRSC17099", "mean viability with MMS": 3.33e6}
{"predicted target": "scro (GeneID 3355151)", "DRSC id": "DRSC17102", "mean viability with MMS": 3.56e6}
{"predicted target": "Ndc80 (GeneID 32316)", "DRSC id": "DRSC20221", "mean viability with MMS": 3.35e6}
{"predicted target": "Ndc80 (GeneID 32316)", "DRSC id": "DRSC21726", "mean viability with MMS": 3.01e6}
{"predicted target": "CG16965 (GeneID 34607)", "DRSC id": "DRSC02547", "mean viability with MMS": 3.58e6}
{"predicted target": "CG5853 (GeneID 34322)", "DRSC id": "DRSC01103", "mean viability with MMS": 3.51e6}
{"predicted target": "CG5853 (GeneID 34322)", "DRSC id": "DRSC02906", "mean viability with MMS": 3.70e6}
{"predicted target": "CheB42b (GeneID 2768717)", "DRSC id": "DRSC22878", "mean viability with MMS": 3.37e6}
{"predicted target": "CG15073 (GeneID 37155)", "DRSC id": "DRSC06506", "mean viability with MMS": 3.59e6}
{"predicted target": "Muc55B (GeneID 37057)", "DRSC id": "DRSC21440", "mean viability with MMS": 3.61e6}

Targets listed so far whose gene name begins with S or s:
{"predicted target": "Serinc (GeneID 39827)", "DRSC id": "DRSC11296", "mean viability with MMS": 3.45e6}
{"predicted target": "scro (GeneID 3355151)", "DRSC id": "DRSC17099", "mean viability with MMS": 3.33e6}
{"predicted target": "scro (GeneID 3355151)", "DRSC id": "DRSC17102", "mean viability with MMS": 3.56e6}

The listing continues:
{"predicted target": "RpS30 (GeneID 42470)", "DRSC id": "DRSC15119", "mean viability with MMS": 2.89e6}
{"predicted target": "SP (GeneID 39494)", "DRSC id": "DRSC09664", "mean viability with MMS": 3.61e6}
{"predicted target": "CheA7a (GeneID 31672)", "DRSC id": "DRSC17965", "mean viability with MMS": 3.52e6}
{"predicted target": "Ptp99A (GeneID 43469)", "DRSC id": "DRSC13933", "mean viability with MMS": 3.68e6}
{"predicted target": "Ptp99A (GeneID 43469)", "DRSC id": "DRSC13939", "mean viability with MMS": 3.62e6}
{"predicted target": "Ptp99A (GeneID 43469)", "DRSC id": "DRSC14319", "mean viability with MMS": 3.62e6}
{"predicted target": "Ptp99A (GeneID 43469)", "DRSC id": "DRSC14320", "mean viability with MMS": 3.66e6}
{"predicted target": "Ptp99A (GeneID 43469)", "DRSC id": "DRSC16803", "mean viability with MMS": 3.78e6}
{"predicted target": "Ptp99A (GeneID 43469)", "DRSC id": "DRSC22125", "mean viability with MMS": 3.50e6}
{"predicted target": "Ptp99A (GeneID 43469)", "DRSC id": "DRSC22477", "mean viability with MMS": 3.68e6}
{"predicted target": "Ptp99A (GeneID 43469)", "DRSC id": "DRSC23033", "mean viability with MMS": 3.59e6}
{"predicted target": "p120ctn (GeneID 3355143)", "DRSC id": "DRSC07753", "mean viability with MMS": 3.54e6}
{"predicted target": "ND-MWFE (GeneID 5740593)", "DRSC id": "DRSC06364", "mean viability with MMS": 3.60e6}
{"predicted target": "Nt5a (GeneID 38148)", "DRSC id": "DRSC08561", "mean viability with MMS": 3.73e6}
{"predicted target": "LManV (GeneID 34205)", "DRSC id": "DRSC03223", "mean viability with MMS": 3.47e6}
{"predicted target": "Gr8a (GeneID 31865)", "DRSC id": "DRSC18043", "mean viability with MMS": 3.51e6}
{"predicted target": "CG33775 (GeneID 3772054)", "DRSC id": "DRSC05353", "mean viability with MMS": 3.65e6}
{"predicted target": "RhoGAP16F (GeneID 32790)", "DRSC id": "DRSC20025", "mean viability with MMS": 3.83e6}
{"predicted target": "CG14566 (GeneID 40421)", "DRSC id": "DRSC11727", "mean viability with MMS": 3.66e6}
{"predicted target": "mth (GeneID 38058)", "DRSC id": "DRSC08725", "mean viability with MMS": 3.52e6}
{"predicted target": "CG3097 (GeneID 31503)", "DRSC id": "DRSC18275", "mean viability with MMS": 3.81e6}
